In patent publication US20220251188A1:
These are yes or no findings as the source states them, for the method shown. Some entries that bind do so weakly or less than the wild type.

Key:
[1] = biological target: T1, Biotinylated LAG-3 (Sino biological, Catalog No.: 16498-HNAH-B) (UniProt P18627); assay: direct ELISA after illumination at 600 Lux for 5 days
T1 sequence (biotinylated (site not stated), looked up): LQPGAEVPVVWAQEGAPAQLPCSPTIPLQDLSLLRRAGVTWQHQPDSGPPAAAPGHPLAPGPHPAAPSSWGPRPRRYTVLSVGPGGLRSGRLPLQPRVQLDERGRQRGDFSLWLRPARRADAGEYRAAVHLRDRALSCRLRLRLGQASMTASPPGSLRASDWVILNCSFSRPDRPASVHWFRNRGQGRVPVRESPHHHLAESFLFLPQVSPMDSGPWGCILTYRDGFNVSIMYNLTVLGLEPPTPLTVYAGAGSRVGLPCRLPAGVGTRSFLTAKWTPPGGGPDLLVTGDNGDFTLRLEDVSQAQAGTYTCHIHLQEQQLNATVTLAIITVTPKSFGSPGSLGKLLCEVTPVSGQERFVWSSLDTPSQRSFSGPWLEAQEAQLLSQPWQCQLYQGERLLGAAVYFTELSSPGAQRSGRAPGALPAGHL

[2] = biological target: T1, Biotinylated LAG-3 (Sino biological, Catalog No.: 16498-HNAH-B); assay: direct ELISA after shaking at 650 rpm for 5 days
[3] = biological target: T1, Biotinylated LAG-3 (Sino biological, Catalog No.: 16498-HNAH-B); assay: direct ELISA after standing at 40 C for 1 month (formulas 8, 9 and 10)
[4] = biological target: T1, Biotinylated LAG-3 (Sino biological, Catalog No.: 16498-HNAH-B); assay: direct ELISA after 6 freezing/thawing cycles
[5] = biological target: T1, Biotinylated LAG-3 (Sino biological, Catalog No.: 16498-HNAH-B); assay: direct ELISA after shaking at 650 rpm for 3 days

Measured: binding

B1: anti-LAG-3 monoclonal antibody ADI-31853 (antibody, human IgG4 S228P, kappa, F234A L235A, V domains shown)
VH: QLQLQESGPGLVKPSETLSLTCTVSGGSIYSESYYWGWIRQPPGKGLEWIGSIVYSGYTYYNPSLKSRVTISVDTSKNQFSLKLSSVTAADTAVYYCARVRTWDAAFDIWGQGTMVTVSS
VL: DIQMTQSPSSLSASVGDRVTITCQASQDISNYLNWYQQKPGKAPKLLIYDASNLETGVPSRFSGSGSGTDFTFTISSLQPEDIATYYCQQVLELPPWTFGGGTKVEIKR
binds: [1] | [2] | [3] | [4] | [5]
